Earlier results, collected in patent US6316027A, “Fast-dissolving dosage forms for dopamine agonists” (priority 1995, dated 2001).
At least one read-out could not be matched to a standard name with certainty.

Settings: in vivo

For `N[C@@H](Cc1ccc(O)c(O)c1)C(=O)O` [levodopa], the “fraction of drug converted to dopamine in peripheral tissues” value is listed as “about 95%”.
